# Primary screen of a compound library

Values are the deposited “Percent Effect”, in %. The record does not define 0% and 100%; most values in the screen are far below 50% and negative numbers occur (in some assays of this library far below -100). The compounds are a random part of those screened. Two or more numbers in one place are separate tests of the same structure; such repeats can differ widely.

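Viability assay of Plasmodium falciparum sporozoites; the read-out is not stated. The concentration is filed as 10 mM, unlikely as a test dose, so the dose is not known. Higher reads as lower viability (inferred: compounds with an IC50 in retests scored well above the rest). Strong results were mostly tested again. Of about 34,000 compounds tested this way, about 280 (0.84%) reached 50% or more in at least one test.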

| # | structure | percent effect |
|---|---|---|
| 1 | `Cc1ccnc(C2(C)CCCN2S(=O)(=O)c2cccnc2)n1` (stereo unspecified) | 9.246 |
| 2 | `CCc1ccc(S(=O)(=O)Nc2ccc(F)cc2C(=O)O)s1` | 0.08937 |
| 3 | `O=C(O)C(F)(F)F.[H][C@@]12CN(C(=O)COC)CCC[C@]1(C(=O)N(C)C)CN(c1ccccn1)C2` | -7.9 |
| 4 | `CN(C)CC(=O)N1CC2(CCN(Cc3ccccc3)C2)C1` | 14.45 |
| 5 | `Cc1cccc2nc(CN3CCC(N4CCN(C)C4=O)CC3)cn12` | 8.391 |
| 6 | `Cn1cc(NS(=O)(=O)c2ccc(F)c(F)c2)ccc1=O` | 0.8643 |
| 7 | `Cc1oncc1C(=O)N1CC2CC1(C(=O)N1CCCC1)C2` | -8.144 |
| 8 | `[H][C@@]12CCN(S(C)(=O)=O)C[C@@]1([H])O[C@H](C(=O)N1CCOCC1)C2` | -13.96 |
| 9 | `Cc1nc(N2CCOCC2)nc2c1CCN(Cc1nccn1C)CC2.O=C(O)C(F)(F)F` | 5.57 |
| 10 | `COc1cccc(-n2cc(CN(C)C(=O)c3cc[nH]n3)cn2)c1` | -69.36 & -66.93 |
| 11 | `CCN(C(=O)CNC1CCc2ncnn2C1)C1=CCCCC1` (stereo unspecified) | 7.399 |
| 12 | `CC1CCCN(C(=O)CNC(=O)c2ccoc2)C1` (stereo unspecified) | 10.13 |
| 13 | `CC1CN(C)c2ccccc2CN1C(=O)c1ccc[nH]1` (stereo unspecified) | -7.674 |
| 14 | `Cl.Cl.Clc1cccc(C[C@@H]2NCCC[C@@H]2Nc2ccccc2)c1` | 0.7033 |
| 15 | `CN(C)C(=O)CNC(=O)c1ccn(-c2ccc3ccccn23)n1` | 3.893 |
| 16 | `O=C(O)C(F)(F)F.O=C(O)C(F)(F)F.[H][C@@]12CCN(C(=O)CC(C)C)CC[C@]1(C(=O)Nc1cccnc1)CCN2C` | 1.926 |
| 17 | `Cc1cc(C)n(C2CCCN(C(=O)CCc3nccs3)C2)n1` (stereo unspecified) | 10.96 |
| 18 | `COC1CCN(Cc2csc(C(C)C)n2)CC1` | -173.7 |
| 19 | `CC(=O)N[C@H]1CCO[C@@H](c2cccc(NC(=O)Cc3ccccc3)c2)C1` | 15.07 & 8.791 & 4.496 |
| 20 | `CCOc1nnc(CNC2CCCN(c3ccc(C)nn3)C2)s1` (stereo unspecified) | 2.72 |
| 21 | `CS(=O)(=O)c1cn[nH]c1C1CCCN(C(=O)Cn2cccn2)C1` (stereo unspecified) | -1.465 |
| 22 | `Cc1nnc2n1CCN(C(C(=O)NC1CC1)c1ccc(F)cc1)C2` (stereo unspecified) | -0.4884 |
| 23 | `[H][C@]12CC[C@]([H])(CN(C(=O)c3c[nH]c(=O)c(Cl)c3)C1)N(CC=C(C)C)C2` | -5.706 |
| 24 | `CN1CCC(c2ncc3c(n2)CCN(C(=O)CC2C=CCC2)C3)CC1` (stereo unspecified) | 1.885 |
| 25 | `CCN(CC1CN(Cc2c(C)noc2C)CCO1)c1cccnn1` (stereo unspecified) | 3.186 |
| 26 | `CSc1ccc(OCCN2CCNC(=O)C2C)cc1` (stereo unspecified) | -4.476 |
| 27 | `CC(CN1CCOCC1)NCC1CCN(c2cnn(C)c(=O)c2)CC1` (stereo unspecified) | 2.016 |
| 28 | `Cc1ncsc1-c1nnc(C2CCN(Cc3cccc(F)c3F)CC2)o1` | 11.72 |
| 29 | `COCCCNc1nccc(-c2c[nH][nH]c2=O)n1` | -1.961 |
| 30 | `[H][C@@]12OCCN(C(=O)C3=CCCC3)[C@@]1([H])CC[C@H]2OC` | -12.4 |
| 31 | `[H][C@@]12CN(C(C)=O)C[C@]1([H])C(=O)N(C)C21CCN(C(=O)C(C)C)CC1` | 9.239 |
| 32 | `CC(C)c1nn(C)c(N2CCOCC2)c1CNCC(=O)N(C)C` | 14.01 |
| 33 | `CN(CC(=O)NC(Cc1ccsc1)c1cccnc1)Cc1ccccn1.Cl` (stereo unspecified) | 12.56 |
| 34 | `Cc1nc(C2CCCN(C(=O)c3ccncc3)C2)c2sccn12` (stereo unspecified) | 8.328 |
| 35 | `COc1ccc(C[C@@H]2CC[C@H](CN(C)C3CCN(C)CC3)O2)cc1` | 4.053 |
| 36 | `CC(C)(C)c1n[nH]c(C2CN(C(=O)C3=COCCC3)CCO2)n1` (stereo unspecified) | 1.346 |
| 37 | `CC(=O)NCC(=O)N(CCN1CCOCC1)Cc1ccco1` | -14.47 |
| 38 | `NC(=O)C1CCN(CCCNC(=O)Nc2nccs2)CC1` | 5.73 |
| 39 | `COCc1cnc2n1CCN(C(=O)C1=CCCCC1)C2C` (stereo unspecified) | -5.263 |
| 40 | `CC(C)=CCN1CCN(Cc2cccc(C)n2)CC1CCO` (stereo unspecified) | 6.14 |
| 41 | `CCN(CC1CN(Cc2cccc(C#N)c2)CCO1)c1cccnn1` (stereo unspecified) | -6.373 |
| 42 | `c1ccc(-c2nc(CN3CCCC3Cn3cncn3)no2)cc1` (stereo unspecified) | 8.904 |
| 43 | `Cc1cc(C)c(C#N)c(N2CCC3(CCCN(CCO)C3=O)C2)n1` (stereo unspecified) | 13.25 |
| 44 | `CCOCC(O)CN1CCN(C(=O)c2ccnc(N(C)C)c2)CC1` (stereo unspecified) | -10.24 |
| 45 | `O=C(NCCn1ccnc1)c1cccc(F)c1` | -0.2445 |
| 46 | `[H][C@@]12C[C@@H](c3nc(C)no3)CN(S(C)(=O)=O)[C@]1([H])CCO2` | -1.029 |
| 47 | `CN(C)CCN(Cc1ccc(F)cc1)C(=O)c1ccn(C)c(=O)c1` | -18.94 |
| 48 | `COc1ccc(C2=CCN(C(=O)CN(C)Cc3ccco3)CC2)cc1` | 4.174 |
| 49 | `O=C(Nc1cc(-c2ccncc2)no1)C1CCCCC1` | -18.28 |
| 50 | `COc1ccc(OC)c(CN2CCc3nc4ccsc4c(=O)n3CC2)c1.Cl` | 3.253 |
| 51 | `CC(=O)NCCNC(=O)c1cnc(C(C)(C)C)s1` | 10.32 |
| 52 | `c1ncn(CC2CCCN(Cc3nc(C4CC4)no3)C2)n1` (stereo unspecified) | -17.35 & -21.57 & -24.21 |
| 53 | `COc1ccc(CC(=O)N2CCC3(CC2)CCN(CC(C)C)C3=O)cc1` | 1.138 |
| 54 | `Cc1cnn(C2CN(Cc3nc(-c4ccsc4)no3)C2)c1` | 9.824 |
| 55 | `[H][C@@]12OCCN(C(=O)c3ccc(C)nc3)[C@@]1([H])CC[C@H]2OCCN(C)C` | 0.2632 |
| 56 | `CSc1cc2c(cc1NC(=O)NCc1ccncc1)OCCO2` | -14.95 & -16.58 |
| 57 | `CNc1cncc(C2CCCN2C(=O)Cn2ccnc2C)n1` (stereo unspecified) | 0.1942 |
| 58 | `Cn1c(C(=O)NCC2(N)CCCC2)cc2ccccc21` | -16.57 |
| 59 | `Cc1cc(NC(=O)CN2CCCC2c2noc(C3CC3)n2)n(C)n1` (stereo unspecified) | -1.38 |
| 60 | `Cl.Cn1cc(CN2CCN(CC3(c4ccccc4)CC3)CC2)cn1` | -0.3167 |
| 61 | `CCOC(=O)CNC(=O)N1CCN(c2ncccn2)CC1` | -2.835 |
| 62 | `CCn1cnnc1C1CCN(C(=O)CCCOc2ccccc2)CC1` | 42.92 & 40.5 & 58.13 |
| 63 | `Cc1cccc(-n2ncc3c2CCCC3NCc2cccc(O)c2)c1C` (stereo unspecified) | 31.34 & 23.9 |
| 64 | `CCCN1CCN(Cc2nccn2CC)C(C)C1` (stereo unspecified) | 11.95 |
| 65 | `Cc1cc(C2CCCN(S(=O)(=O)N(C)C)C2)ccn1` (stereo unspecified) | 3.1 |
| 66 | `O=C(NCCC(=O)N1CCCCCC1)c1c(O)cc(F)cc1F` | -15.95 |
| 67 | `Cc1ccc(CN2CCOC3(CCCN(c4cccc(F)c4)C3)C2)o1.O=C(O)C(F)(F)F.O=C(O)C(F)(F)F` (stereo unspecified) | 10.33 |
| 68 | `COCCC(C)NC(=O)c1cc(Br)c2c(c1)OCCO2` (stereo unspecified) | 5.915 |
| 69 | `Cl.c1ncc(-c2ccc(C3CNCCO3)nc2)cn1` (stereo unspecified) | 12.2 & 29.68 & 42.01 |
| 70 | `Cc1cc(NC(=O)CN2CCn3c(nnc3C3CC3)C2)no1` | -2.899 |
| 71 | `Cc1nc(CN(C)C2CCN(Cc3cnc(C)s3)C2)no1` (stereo unspecified) | 2.693 |
| 72 | `CN(C)CCOCC1CN(CC2CCOCC2)Cc2nnn(C)c21.O=C(O)C(F)(F)F.O=C(O)C(F)(F)F` (stereo unspecified) | 15.92 |
| 73 | `O=C(c1ccc2c(c1)COC2)N1CCN(CCO)CC1` | -9.892 |
| 74 | `c1ccc(CC2(CNCc3ncc[nH]3)CCC2)cc1` | -32.37 |
| 75 | `CC(C)c1n[nH]c(C(=O)Nc2ccncc2)c1Br` | 98.93 & 67.14 & 45.46 |
| 76 | `[H][C@@]12CCCO[C@]1([H])[C@H](N1CCN(C)CC1)CN2C(=O)c1ccc(C)nc1` | 4.726 |
| 77 | `O=C(O)C(F)(F)F.O=C(O)C(F)(F)F.[H][C@@]12COC[C@]1(COc1cccnc1)CN(C1CCC1)C2` | 6.421 |
| 78 | `Cc1cccc(CN(C(=O)NCc2ccccn2)C2CC2)c1` | 16.29 |
| 79 | `Cc1cc(C)n(C2CCCN(C(=O)c3c[nH]c(=O)c(Cl)c3)C2)n1` (stereo unspecified) | -10.03 |
| 80 | `O=C(O)C(F)(F)F.O=C1CC[C@]2(CC[C@@H](NCc3ccsc3)CC2)N1Cc1ccccc1` | -3.065 |
| 81 | `COCCN1CCN(CCS(C)(=O)=O)CC1C` (stereo unspecified) | 15.01 |
| 82 | `CCCNC(=O)c1cc2c([nH]c1=O)CC(c1cccs1)CC2=O` (stereo unspecified) | -3.947 |
| 83 | `COCc1ccc(C(=O)N(CCC#N)Cc2ccccn2)cc1` | -7.353 |

Once more, the final 6:

- Cc1cccc(CN(C(=O)NCc2ccccn2)C2CC2)c1 : 16.29%
- Cc1cc(C)n(C2CCCN(C(=O)c3c[nH]c(=O)c(Cl)c3)C2)n1 (stereo unspecified) : -10.03%
- O=C(O)C(F)(F)F.O=C1CC[C@]2(CC[C@@H](NCc3ccsc3)CC2)N1Cc1ccccc1 : -3.065%
- COCCN1CCN(CCS(C)(=O)=O)CC1C (stereo unspecified) : 15.01%
- CCCNC(=O)c1cc2c([nH]c1=O)CC(c1cccs1)CC2=O (stereo unspecified) : -3.947%
- COCc1ccc(C(=O)N(CCC#N)Cc2ccccn2)cc1 : -7.353%

From ChEMBL document CHEMBL3988442, “University of Dundee, Small-Polar-MMV Screening Library” (2021).